The values below come from patent US20190256853.

Data set [1] relates to polyclonal IgG (human plasma) (Homo sapiens). Briefly: SPR. The conditions noted are these: purified native protein, protein details: purity >95%, single-stranded DNA.
Data set [2] concerns IgG Fc fragment (human polyclonal) (Homo sapiens). Briefly: SELEX. The conditions noted are these: purified native protein, protein details: Jackson ImmunoResearch 009-000-008, single-stranded DNA.
In data set [3] the test system is polyclonal IgG (human plasma) (Homo sapiens). Briefly: pull-down. The note with it: 5' triethylene glycol spacer (SPR); 5' C6 amino spacer and 3' idT (affinity support); affinity chromatography, MES pH 5.5, 5 mM MgCl2; eluted at pH 7.4; yield 82% purified IgG, 66% plasma; purified native protein; protein details: purity >95%; label: 5' biotin (SPR); single-stranded DNA.

For at least one entry, the source does not settle the construct or the ends of the probe. For part of these data: Negatives hold for the conditions tested.

With “GGGTCAATGCCAGGTCTCCACGGTATAGTCTCGCCCAGTGCCCTTTGTTGGACTTCCTATCGGCTCGCAAGCAGTC [A6-8]”, the binding result in data set [1] (5' triethylene glycol spacer, 200 nM IgG, pH 5.50, resists 2 M NaCl, released at pH 7.40, label: 5' biotin) is on record as “binds”. Also, the selection result in data set [2] (5' triethylene glycol spacer, label: 5' biotin) is “selected”.

“GGGTCAATGCCAGGTCTCCCCAGCCTCATCTCACGGCATAGTCTCGCCACACTGGAAATCGGCTCGCAAGCAGTC [A6-2]”: the binding result is given as “binds” in data set [1] (5' triethylene glycol spacer (SPR), 5' C6 amino spacer and 3' idT (affinity support), 200 nM IgG, pH 5.50, resists 2 M NaCl, released at pH 7.40, label: 5' biotin (SPR)); “no binding” in data set [1] (5' triethylene glycol spacer (SPR), 5' C6 amino spacer and 3' idT (affinity support), no significant binding at pH higher than 6.0, highest binding at pH 5.30, label: 5' biotin (SPR)); “binds” in data set [3]. The selection result in data set [2] (5' triethylene glycol spacer (SPR), 5' C6 amino spacer and 3' idT (affinity support), label: 5' biotin (SPR)) is “selected”.
